Measured values from paper PMC9681084, “MYB44-ENAP1/2 restricts HDT4 to regulate drought tolerance in Arabidopsis” (PLOS Genetics, 2022).
These are yes or no findings as the source states them, for the method shown. Binding can be weak; no strength is given. Where a sequence is shown, tags or fusion partners need not be part of it.

Target: MYB44 N-terminus (Arabidopsis)
Experiment: two-hybrid; AD (pEXPAD502) and BD (pDBLeu) vector pairs co-transformed to yeast strain AH109; growth on SD/-Trp-Leu-His with 3'AT

binding: binds
B1: MBP-ENAP1 (natural protein, Arabidopsis, UniProt Q8VZI9 1-249, looked up)
chain: METTPETQSKTHRLPAGREDWWSEDATATLIEAWGDRYVNLNRGNLRQNDWKEVADAVNSSHGNGRPKTDVQCKNRIDTLKKKYKTEKAKPLSNWCFFDRLDFLIGPVMKKSSGAVVKSALMNPNLNPTGSKSTGSSLDDDDDDDDDDEEDDDDAGDWGFVVRKHRKVEDVDSSEGSAFRELARSILKLGEAFERIEGKKQQMMIELEKQRMEVAKELELQRMNMLMEMQLELEKSKLGKRRAASGKKL
notes: ENAP1, Arabidopsis, AT3G11100; the CDS ligated to pVP13 (His tag removed); source: E. coli, purified (Amylose resin)
